Measurements reported in PubChem BioAssay AID587 (National Center for Advancing Translational Sciences (NCATS), 2007).
The whole screen tested about 59,000 compounds, of which about 35 (0.06%) were called active. Inconclusive means that the source gave no clear call. Such entries were picked first, then a sample of the others. Rule as the data show it: active = max dye-equivalent concentration above about 10 nM; inconclusive = between about 1.1 nM and that limit; inactive = weaker than that.

Test: qHTS Assay for Spectroscopic Profiling in Texas Red Spectral Region
Conditions: Compound fluorescence, Texas Red channel, 547/618 nm; stronger effect = higher value
Summary of the method: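 Compound titrations in 100 mM Tris pH 8.0 were incubated 15 min at room temperature and read at 547 nm excitation / 618 nm emission. Texas Red six-point standard curve on each plate converted fluorescence to dye-equivalent concentration.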

| SMILES | max dye-equivalent concentration |
| --- | --- |
| O=C(O)C1CCCCC1C(=O)NCCCCc1ccccc1 (configuration not stated) | inconclusive: 1.5 nM |
| COC(=O)C1=C(C)N(CCC2=CCCCC2)C(=O)C1 | inconclusive: 1.6 nM |
| Cc1ccc(CNc2ncc(-c3ccc4c(c3)OCO4)n2C)cc1 | inconclusive: 1.7 nM |
| Cc1c(C)c2c(c(C)c1O)CC[C@@](C)(CCC[C@@H](C)CCC[C@@H](C)CCCC(C)C)O2 | inconclusive: 1.2 nM |
| COc1ccccc1-c1nc(C#N)c(N2CCN(c3cccc(Cl)c3)CC2)o1 | inconclusive: 1.5 nM |
| CCCOc1ccc(C2C(=O)N(C3CCCCC3)CC(=O)N2CCCOCC)cc1OC (configuration not stated) | inconclusive: 2.2 nM |
| N#Cc1c(NC(=O)CSc2ncnc3sccc23)oc(-c2ccco2)c1-c1ccco1 | inconclusive: 2.4 nM |
| O=S(=O)(c1ccc(S(=O)(=O)N2CCN(C/C=C/c3ccccc3)CC2)cc1)N1CCCC1 | inconclusive: 1.1 nM |
| c1cc2c(cc1-c1cnc3n1CCC3)OCCO2 | inconclusive: 1.6 nM |
| CC(=O)CC(C)(C)n1nnc(-c2ccccc2)n1 | inconclusive: 1.4 nM |
| CCCCC[C@H](CC(=O)NO)C(=O)N[C@@H](C(=O)N1CCC[C@H]1CO)C(C)C | inactive |
| CCCc1nnc(NC(=O)CN2CCOCC2)s1 | inconclusive: 1.3 nM |
| O=C(CCN1C(=O)c2ccccc2C1=O)N1CCC(c2ccccc2)C1 (configuration not stated) | inconclusive: 1.1 nM |
| COC(=O)CSc1nc(N)c(C#N)c(C(C)C)c1C#N | inconclusive: 1.6 nM |
| Cc1cc(NC(=O)CCC(=O)N(CC(=O)NC2CCCC2)Cc2ccc(F)cc2)no1 | inconclusive: 1.1 nM |
| CC(=O)NC(CC(=O)Nc1ccc(S(=O)(=O)N2CCCC2)cc1)c1ccccc1 (configuration not stated) | inconclusive: 1.5 nM |
| C[C@H](NCCC(c1ccccc1)c1ccccc1)c1ccccc1 | inconclusive: 1.2 nM |
| COC(=O)c1[nH]c2cccc(OC)c2c1NC(=O)CCN1CCN(c2cccc(Cl)c2)CC1 | inconclusive: 1.5 nM |
| CCOC(=O)c1cnc(-n2nc(C)cc2C)nc1N(C)C | inconclusive: 1.5 nM |
| COc1ccc2c(c1)CCC1C2CC[C@]2(C)[C@H](NCCCCCCN3C(=O)C=CC3=O)CC[C@@H]12 (some centres not stated) | inactive |
| Cc1ccc(S(=O)(=O)N2CCC(C(=O)NCCN3CCCCCC3)CC2)cc1 | inconclusive: 1.2 nM |

| SMILES | max dye-equivalent concentration |
| --- | --- |
| CCOCCn1c(CN2CCN(c3ccc(F)cc3)CC2)nc2c1c(=O)n(C)c(=O)n2C | inconclusive: 1.5 nM |
| CCn1nnnc1NCc1ccc(N2CCCC2)cc1 | inconclusive: 1.4 nM |
| Cc1ccc([C@@H]2C3COCC=C3C(C#N)=C(N)C2(C#N)C#N)o1 (some centres not stated) | inactive |
| COc1ccc2[nH]cc(C(=O)CN3CCN(C4CCCCC4)CC3)c2c1 | inconclusive: 1.9 nM |
| COc1ccc(-n2nc(C(=O)Nc3ccc4c(c3)OCO4)c3ccccc3c2=O)cc1 | inconclusive: 1.4 nM |
| CCCCSc1nnc2nc(C)cc(C)n12 | inconclusive: 1.5 nM |
| CCOC(=O)c1c(C)[nH]c(C(=O)COC(=O)c2cnc(C)cn2)c1C | inconclusive: 1.3 nM |
| OC(CCN1CCOCC1)(c1ccc(Cl)cc1)C1CCCCC1 (configuration not stated) | inconclusive: 1.4 nM |
| CCOc1cc(NC(=O)c2ccco2)c(OCC)cc1NC(=O)c1cc(OC)c(OC)c(OC)c1 | inconclusive: 1.3 nM |
| CCCc1[nH]nc2c1C1(C(=O)N(C(C)C)c3ccccc31)C(C#N)=C(N)O2 (configuration not stated) | inconclusive: 1.6 nM |
| Cn1c(=O)c2c(-c3ccncc3)c3c(nc2n(C)c1=O)-c1ccccc1C3=O | inconclusive: 1.3 nM |
| COc1cccc(NC(=O)CSc2nncn2-c2ccccn2)c1 | inconclusive: 1.1 nM |
| COCCn1c(=O)c(-c2cccs2)nc2cnc(Oc3ccccc3)nc21 | inactive |
| NC(=S)c1ccc[n+]([C@@H]2O[C@@H](COP(=O)([O-])OP(=O)(O)OC[C@@H]3O[C@@H](n4cnc5c(N)ncnc54)[C@@H](OP(=O)(O)O)[C@H]3O)[C@@H](O)[C@H]2O)c1 | inactive |
| CS(=O)(=O)NCc1ccc(C(=O)NCCOc2ccccc2)cc1 | inconclusive: 2.1 nM |
| COC(=O)c1ccc(C2/C(=C(/O)c3ccc(OC)cc3)C(=O)C(=O)N2c2cc(C)on2)cc1 (configuration not stated) | inactive |
| C=CCOc1ccc(C2C(C(=O)c3ccco3)=C(O)C(=O)N2CCCN(CC)CC)cc1 (configuration not stated) | inconclusive: 1.6 nM |
| COc1ccc(CCN(C)CCc2ccc(OC)c(OC)c2)cc1OC | inconclusive: 1.1 nM |
| CCCOC(=O)C1[C@H]2C(=O)N(CCCOC)C[C@]23C=C[C@H]1O3 (some centres not stated) | inconclusive: 1.5 nM |
| CN(CCO)C(=O)CCC(=O)Nc1ccc(S(N)(=O)=O)cc1 | inconclusive: 1.6 nM |
| C[C@@H]1O[C@H](O[C@@H]2[C@H](C)O[C@H](O[C@@H]3[C@H](C)O[C@H](O[C@H]4CC[C@]5(C)[C@@H](CC[C@@H]6[C@H]5C[C@@H](O)[C@]5(C)[C@@H](C7=CC(=O)OC7)CC[C@]65O)C4)C[C@@H]3O)C[C@@H]2O)C[C@H](O)[C@@H]1O | inactive |

A run of entries of the results above, as a working copy:

| SMILES | max dye-equivalent concentration |
| --- | --- |
| Cc1c(C)c2c(c(C)c1O)CC[C@@](C)(CCC[C@@H](C)CCC[C@@H](C)CCCC(C)C)O2 | inconclusive: 1.2 nM |
| COc1ccccc1-c1nc(C#N)c(N2CCN(c3cccc(Cl)c3)CC2)o1 | inconclusive: 1.5 nM |
| CCCOc1ccc(C2C(=O)N(C3CCCCC3)CC(=O)N2CCCOCC)cc1OC (configuration not stated) | inconclusive: 2.2 nM |
| N#Cc1c(NC(=O)CSc2ncnc3sccc23)oc(-c2ccco2)c1-c1ccco1 | inconclusive: 2.4 nM |
| O=S(=O)(c1ccc(S(=O)(=O)N2CCN(C/C=C/c3ccccc3)CC2)cc1)N1CCCC1 | inconclusive: 1.1 nM |
| c1cc2c(cc1-c1cnc3n1CCC3)OCCO2 | inconclusive: 1.6 nM |
| CC(=O)CC(C)(C)n1nnc(-c2ccccc2)n1 | inconclusive: 1.4 nM |
| CCCCC[C@H](CC(=O)NO)C(=O)N[C@@H](C(=O)N1CCC[C@H]1CO)C(C)C | inactive |
| CCCc1nnc(NC(=O)CN2CCOCC2)s1 | inconclusive: 1.3 nM |
| O=C(CCN1C(=O)c2ccccc2C1=O)N1CCC(c2ccccc2)C1 (configuration not stated) | inconclusive: 1.1 nM |
| COC(=O)CSc1nc(N)c(C#N)c(C(C)C)c1C#N | inconclusive: 1.6 nM |
| Cc1cc(NC(=O)CCC(=O)N(CC(=O)NC2CCCC2)Cc2ccc(F)cc2)no1 | inconclusive: 1.1 nM |
| CC(=O)NC(CC(=O)Nc1ccc(S(=O)(=O)N2CCCC2)cc1)c1ccccc1 (configuration not stated) | inconclusive: 1.5 nM |
| C[C@H](NCCC(c1ccccc1)c1ccccc1)c1ccccc1 | inconclusive: 1.2 nM |
| COC(=O)c1[nH]c2cccc(OC)c2c1NC(=O)CCN1CCN(c2cccc(Cl)c2)CC1 | inconclusive: 1.5 nM |
| CCOC(=O)c1cnc(-n2nc(C)cc2C)nc1N(C)C | inconclusive: 1.5 nM |
| COc1ccc2c(c1)CCC1C2CC[C@]2(C)[C@H](NCCCCCCN3C(=O)C=CC3=O)CC[C@@H]12 (some centres not stated) | inactive |
| Cc1ccc(S(=O)(=O)N2CCC(C(=O)NCCN3CCCCCC3)CC2)cc1 | inconclusive: 1.2 nM |
| CCOCCn1c(CN2CCN(c3ccc(F)cc3)CC2)nc2c1c(=O)n(C)c(=O)n2C | inconclusive: 1.5 nM |
| CCn1nnnc1NCc1ccc(N2CCCC2)cc1 | inconclusive: 1.4 nM |
| Cc1ccc([C@@H]2C3COCC=C3C(C#N)=C(N)C2(C#N)C#N)o1 (some centres not stated) | inactive |
| COc1ccc2[nH]cc(C(=O)CN3CCN(C4CCCCC4)CC3)c2c1 | inconclusive: 1.9 nM |

Additional structures follow:

| SMILES | max dye-equivalent concentration |
| --- | --- |
| CC(C)(C)c1cnnn1-c1ccc(NC(=O)c2ccc3c(c2)OCO3)cc1 | inconclusive: 1.7 nM |
| CCCOC(=O)C1=C(C)NC2=C(C(=O)CCC2)C1c1ccc(N(C)C)cc1 (configuration not stated) | inconclusive: 1.5 nM |
| COCCCNC(=O)Cn1ncc2c(=O)oc3ccccc3c21 | inconclusive: 1.1 nM |
| COc1c(O)cc2c(c1O)[C@@H]1O[C@@H](CO)[C@@H](O)[C@@H](O)[C@@H]1OC2=O | inconclusive: 1.3 nM |
| CCN(CC)S(=O)(=O)c1cccc(-c2nnc(SCc3nnc(-c4cccs4)o3)n2N)c1 | inconclusive: 1.5 nM |
| COc1ccccc1N1CCN(C(=O)c2cccc(N3C(=O)NC4CC3(C)Oc3ccccc34)c2)CC1 (configuration not stated) | inconclusive: 1.1 nM |
| COC(=O)c1c(-c2cccs2)csc1NC(=O)c1cccnc1 | inconclusive: 2.1 nM |
| COc1ccc(C(C)=O)cc1COC(=O)Cc1n[nH]c(=O)c2ccccc12 | inconclusive: 1.1 nM |
| CN(C)S(=O)(=O)N1CCCN(S(=O)(=O)N(C)C)CC1 | inconclusive: 1.9 nM |
| N#Cc1ccc(CN2CC3(CCN(C(=O)c4cnccn4)CC3)C2)cc1 | inconclusive: 1.5 nM |
| CCOC(=O)c1cnc(SCC(=O)Nc2ccc3c(c2)OCCO3)nc1N | inconclusive: 1.1 nM |
| COc1ccc2c(c1)c1ncn(Cc3ccco3)c(=O)c1n2C | inconclusive: 2.4 nM |
| CC(=O)c1cc(C)ccc1OC(=O)c1cccnc1 | inconclusive: 1.7 nM |
| CCN(CC)C[C@@H](O)c1ccc2ccc3ccccc3c2c1 | inactive |
| O=C(O)CC(c1ccc(Cl)cc1)n1cccc1 (configuration not stated) | inconclusive: 1.2 nM |
| O=C1CC2(CCCCC2)Oc2ccc(O)cc21 | inconclusive: 1.2 nM |
| CC1CCN(C(=O)c2cccc(S(=O)(=O)N3CCCCC3)c2)CC1 | inconclusive: 1.8 nM |
| Cc1cc(C(=O)Cn2nnc3ccccc3c2=O)c(C)n1-c1c(C)n(C)n(-c2ccccc2)c1=O | inactive |
| COC(=O)c1cc(NC(=O)Cc2coc3cc(OC)ccc23)cc(C(=O)OC)c1 | inconclusive: 1.3 nM |
| COc1cc(C)nc(NC(=O)COc2ccc(Cl)cc2C)n1 | inconclusive: 1.1 nM |
| CCC(=O)NC(C)c1nc2ccccc2n1C (configuration not stated) | inconclusive: 1.4 nM |

| SMILES | max dye-equivalent concentration |
| --- | --- |
| Cc1ccc2[nH]c3c(c2c1)CN(C(=O)CN1CC(C)OC(C)C1)CC3 (configuration not stated) | inactive |
| CCCCC(CC)CNC(=O)CN(C)S(=O)(=O)c1cccc2nsnc12 (configuration not stated) | inconclusive: 1.5 nM |
| COC(=O)c1ccc(-n2nnnc2SCC(=O)Nc2ccccc2OC)cc1 | inconclusive: 1.1 nM |
| CCCCOC(=O)c1ccc(NC(=O)c2ocnc2C)cc1 | inconclusive: 1.2 nM |
| CCOc1ccccc1OCC(=O)Nc1nnc(C)s1 | inconclusive: 1.2 nM |
| CCOC(=O)Nc1sc(C)nc1-c1ccccc1 | inconclusive: 1.6 nM |
| O=C(CCNC(=O)c1ccc(Br)o1)NCc1ccccn1 | inconclusive: 1.1 nM |
| O=C(Nc1nnc(C2CC2)s1)c1cccc(S(=O)(=O)N2CCc3ccccc32)c1 | inconclusive: 1.2 nM |
| CSCC[C@H](NC(=O)OC(C)(C)C)c1nnc(SCc2ccccc2)o1 | inconclusive: 1.1 nM |
| COCCN(CCOC)Cc1cc(=O)oc2cc3c(cc12)CCC3 | inconclusive: 1.2 nM |
| CCOC(=O)CSc1nc2ccccc2c(=O)n1Cc1ccco1 | inconclusive: 2.1 nM |
| O=C(NCCC1=CCCCC1)C1COc2ccccc2O1 (configuration not stated) | inconclusive: 1.5 nM |
| COc1cccc(OCCCCN2CCCCC2)c1 | inconclusive: 1.6 nM |
| CN(C)Cc1ccccc1-c1nc(NCc2ccccc2)c2ccccc2n1 | inactive |
| Nc1ccc(S(=O)(=O)Nc2ncccn2)cc1 | inconclusive: 1.1 nM |
| Cc1nnc2n1NC(c1ccc(Cl)cc1)C(C(=O)N1CCC(C)CC1)S2 (configuration not stated) | inconclusive: 1.2 nM |
| Cc1ccc(-c2nnc3ccc(SCC(=O)N4CCCCC4)nn23)cc1 | inconclusive: 1.1 nM |
| COc1nc(-c2ccccc2)ccc1-c1noc(-c2ccco2)n1 | inconclusive: 1.4 nM |
| O=C(Nc1cccc(-c2nnc(-c3ccccc3)o2)c1)c1ccco1 | inconclusive: 2 nM |
